## Screening data

The results are deposited in PubChem (AID1224904; Broad Institute, 2016).

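Selective DUX4 reporter inhibition in doxycycline-induced 293T-iDUX4 cells, scored as Gaussia percent activity minus Italica percent activity, after a 24-hour treatment.
The test concentration is not given here.
Percent difference between the Gaussia and Italica channels; more negative values mean more selective suppression of the DUX4 reporter, and higher values mean less activity.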

Values are in %.
The controls that fix the scale are not given here.
Common to all entries: measured here: selective DUX4 reporter inhibition.
Part of the compounds only, not a random draw; the main read-out is not listed here.

For Cc1ccc(-c2ccc([C@@H]3[C@@H](CO)N4CCCCN(S(=O)(=O)c5ccccc5C)C[C@@H]34)cc2)cc1 the result was Gaussia minus Italica difference -19.22%. CN(C)c1ccc2c(c1)[C@@H]1C[C@H](CC(=O)N3CCc4ccccc4C3)O[C@@H](CO)[C@@H]1O2 read Gaussia minus Italica difference -2.78%. COCC(=O)N1CC[C@@H]2[C@H](CO)Nc3ccc(-c4cccc(C#N)c4)cc3[C@@H]21 read Gaussia minus Italica difference -12.86%. For COc1ccccc1CNC(=O)C[C@H]1C[C@H]2c3cc(NC(=O)Nc4ccccc4F)ccc3O[C@H]2[C@@H](CO)O1 the result was Gaussia minus Italica difference -13.44%. With OC[C@H]1[C@H](c2ccc(C#Cc3ccccc3F)cc2)[C@H]2CN(CC3CCOCC3)CCCCN21 the assay gave Gaussia minus Italica difference -2.79%. O=C(C[C@H]1CC[C@@H]2[C@H](COC[C@@H](O)CN2C(=O)Nc2ccc(Cl)cc2)O1)NCC1CCCCC1 gave Gaussia minus Italica difference -5.868%. Cc1ccccc1-c1ccc(C2[C@H]3CNC[C@@H]2N3Cc2ccc3c(c2)OCO3)cc1 (some centres unmarked) gave Gaussia minus Italica difference -3.883%. Result for Cc1ccccc1S(=O)(=O)N1C[C@@H](O)COC[C@@H]2O[C@H](CC(=O)N3CCC(Cc4ccccc4)CC3)CC[C@H]21 was Gaussia minus Italica difference -8.105%.

For COc1ccc2c3c([nH]c2c1)[C@@H](CO)N(C(=O)c1ccc(F)cc1)CC31CCN(C(=O)Nc2ccc(F)cc2)CC1 the result was Gaussia minus Italica difference -9.843%. For CN(C)C(=O)c1cccc(-c2ccc3c(c2)[C@@H]2[C@@H](CCN2C(=O)Cc2ccccc2)[C@@H](CO)N3)c1 the result was Gaussia minus Italica difference -18.99%. O=C(c1ccncc1)N1CC[C@@H]2[C@@H](CO)Nc3ccc(-c4ccc(F)cc4)cc3[C@@H]21 read Gaussia minus Italica difference 2.361%. Result for CCCC#Cc1ccc([C@@H]2[C@H](CO)N3C(=O)CN(C(=O)Nc4ccccc4)C[C@@H]23)cc1 was Gaussia minus Italica difference -21.31%. O=C(c1ccc2c(c1)OCO2)N1CC(=O)N2[C@@H](CO)[C@@H](c3ccc(C#Cc4ccccc4)cc3)[C@@H]2C1 read Gaussia minus Italica difference 2.163%. Result for COc1ccccc1S(=O)(=O)N(C)C[C@@H]1OCc2ccccc2-c2c(n(C)c3ccccc23)C(=O)N([C@H](C)CO)C[C@@H]1C was Gaussia minus Italica difference -0.7097%. COc1ccc(-c2ccc([C@@H]3[C@H](CO)N4C(=O)CN(C(=O)c5ccccc5)C[C@@H]34)cc2)cc1 read Gaussia minus Italica difference -2.244%. For N#Cc1ccc(-c2ccc3c(c2)[C@H]2[C@H](CCN2C(=O)C2CCCCC2)[C@H](CO)N3)cc1 the result was Gaussia minus Italica difference -10.42%.

O=C(c1cccc(F)c1)N1CC2(C1)[C@H](c1ccccc1)[C@H](CO)N2C(=O)C1CCC1 gave Gaussia minus Italica difference 1.75%. With COc1ccc2c3c([nH]c2c1)[C@H](CO)N(Cc1ccncc1)CC31CN(Cc2ccc(-c3ccccn3)cc2)C1 the assay gave Gaussia minus Italica difference -15.09%. C/C=C/c1ccc2c(c1)[C@H]1[C@H](CCN1C(=O)c1ccc(F)cc1)[C@H](CO)N2 gave Gaussia minus Italica difference -19.78%. CCCC(=O)N1CC2(C1)CN(Cc1ccccc1F)[C@H](CO)c1c2c2ccc(OC)cc2n1C read Gaussia minus Italica difference -10.57%. COc1ccc2c3c([nH]c2c1)[C@H](CO)N(S(=O)(=O)c1ccc(C)cc1)CC31CN(Cc2ccccc2)C1 gave Gaussia minus Italica difference -18.27%. For O=C(Nc1ccc(F)cc1)N1CC(=O)N2[C@H](C1)[C@@H](c1ccc(C#Cc3cccnc3)cc1)[C@@H]2CO the result was Gaussia minus Italica difference -24.45%. OC[C@H]1[C@@H](c2ccc(C#CC3CCCC3)cc2)[C@@H]2CN(CCC(F)(F)F)CCCCN12 read Gaussia minus Italica difference -10.25%. For CCS(=O)(=O)N1CCC2(CC1)CN(S(=O)(=O)c1ccccc1)[C@H](CO)c1c2c2ccc(OC)cc2n1C the result was Gaussia minus Italica difference -11.92%.

With O=C(Nc1ccc(F)cc1)N1CC(=O)N2[C@H](C1)[C@@H](c1ccc(C#Cc3ccccc3)cc1)[C@@H]2CO the assay gave Gaussia minus Italica difference 4.352%. Result for COc1ccc(S(=O)(=O)N2CC3(CN(C(=O)c4cccnc4)[C@@H](CO)c4c3c3ccc(OC)cc3n4C)C2)cc1 was Gaussia minus Italica difference -17.79%. Cc1ccc(-c2ccc([C@H]3[C@@H](CO)N4C(=O)CN(C(=O)Nc5cccc(F)c5)C[C@H]34)cc2)cc1 read Gaussia minus Italica difference 0.05667%. With CCCC#Cc1ccc([C@H]2[C@H](CO)N3C(=O)CN(C(=O)Nc4ccccc4)C[C@@H]23)cc1 the assay gave Gaussia minus Italica difference -19.17%. With Cc1ccccc1-c1ccc([C@H]2[C@H]3CN(C(=O)Cc4ccccn4)CCCCN3[C@H]2CO)cc1 the assay gave Gaussia minus Italica difference -19.54%. For CN(C)C(=O)c1cccc(-c2ccc3c(c2)[C@@H]2[C@@H](CCN2C(=O)c2cnccn2)[C@@H](CO)N3)c1 the result was Gaussia minus Italica difference -16.91%. For N#Cc1cccc(-c2ccc([C@@H]3[C@@H](CO)N4CCCCN(Cc5ccccc5F)C[C@@H]34)cc2)c1 the result was Gaussia minus Italica difference -1.404%. For COc1cccc(S(=O)(=O)Nc2ccc3c(c2)C(=O)N(C)C[C@@H](OC)[C@@H](C)CN(Cc2ccccc2F)[C@@H](C)CO3)c1 the result was Gaussia minus Italica difference -11.93%.

With O=C(C[C@H]1CC[C@@H]2[C@H](COC[C@@H](O)CN2S(=O)(=O)c2ccc(Oc3ccccc3)cc2)O1)Nc1ccccc1 the assay gave Gaussia minus Italica difference -14.26%. Result for O=C(c1ccccn1)N1CC[C@@H]2[C@H](CO)Nc3ccc(C#Cc4ccccc4)cc3[C@@H]21 was Gaussia minus Italica difference -12.55%. For C[C@H](NC(=O)C[C@H]1CC[C@@H]2[C@H](COC[C@@H](O)CN2C(=O)Nc2cc(Cl)cc(Cl)c2)O1)c1ccccc1 the result was Gaussia minus Italica difference 4.443%. Cc1ccc(S(=O)(=O)N2CC[C@H]3[C@H](CO)Nc4ccc(C#Cc5ccc(F)cc5)cc4[C@H]32)cc1 read Gaussia minus Italica difference -2.909%. Cc1ccccc1S(=O)(=O)N1C[C@H](O)COC[C@H]2O[C@H](CC(=O)NCc3ccccc3Cl)CC[C@@H]21 read Gaussia minus Italica difference -6.398%. For COc1ccc(C#Cc2ccc([C@H]3[C@@H](CO)N4CCCCN(S(=O)(=O)c5cn(C)cn5)C[C@@H]34)cc2)cc1 the result was Gaussia minus Italica difference 3.436%.

The first 4 entries again:

structure	Gaussia minus Italica difference (%)
Cc1ccc(-c2ccc([C@@H]3[C@@H](CO)N4CCCCN(S(=O)(=O)c5ccccc5C)C[C@@H]34)cc2)cc1	-19.22
CN(C)c1ccc2c(c1)[C@@H]1C[C@H](CC(=O)N3CCc4ccccc4C3)O[C@@H](CO)[C@@H]1O2	-2.78
COCC(=O)N1CC[C@@H]2[C@H](CO)Nc3ccc(-c4cccc(C#N)c4)cc3[C@@H]21	-12.86
COc1ccccc1CNC(=O)C[C@H]1C[C@H]2c3cc(NC(=O)Nc4ccccc4F)ccc3O[C@H]2[C@@H](CO)O1	-13.44